Measurements reported in PubChem BioAssay AID686938 (Drosophila RNAi Screening Center, 2013).

Test: 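Fly genes required for calcium entry once internal stores are emptied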 (primary screen)
Cell system: Drosophila S2R+ cells
Reagent: long dsRNA against Drosophila genes, about 0.25 µg dsRNA per well, roughly 10,000 cells
Time to read-out: 5 days of knock-down before the calcium assay
Challenge: thapsigargin (SERCA pump blocker) to empty calcium stores; entry signal taken 4 min after adding it
Detection: 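Per-well fluo-4 fluorescence in two replicates, unnormalised, measured in resting cells and 4 min after store depletion by the SERCA blocker thapsigargin; ratio of the two present in few wells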
Reading the numbers: calcium entry signal: higher = stronger calcium signal after store depletion; resting calcium signal: higher = higher resting calcium signal
Hit rule: 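Hit if the duplicate-averaged plate z-score for entry over resting signal is under −3; wells with weak total dye signal (Fmax z < −2) or more than 5 off-targets removed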
Calls: active = strongly reduced calcium entry; inactive = no strong reduction
The screen tested about 23,000 reagents; below is a random part of those with a known target gene and a result. Of all reagents, 75 (0.33%) got an active call. 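Raw plate signals without normalisation; calls rest on plate z-scores that were not deposited; ratio present for only 364 wells.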 Names joined by + are all predicted targets of the reagent. No sequences are given here. The record does not give: the dose of the treatment.

The opening 4 records as a preview:
Gene	amplicon	calcium entry signal, replicate 1 (fluorescence units)	calcium entry signal, replicate 2 (fluorescence units)	resting calcium signal, replicate 1 (fluorescence units)	resting calcium signal, replicate 2 (fluorescence units)	outcome
Desi (Desiccate)	DRSC14909	3.95e7	3.76e7	1.94e7	2.06e7	inactive
Taf6 (TBP-associated factor 6)	DRSC11299	2.42e7	1.63e7	1.95e7	9.13e6	inactive
CG17198 + CG17197	DRSC15190	5.26e7	3.79e7	2.42e7	1.57e7	inactive
CG17198 + CG17197	DRSC15191	4.34e7	4.11e7	2.01e7	1.64e7	inactive

Main list, from the first entry:
Gene	amplicon	calcium entry signal, replicate 1 (fluorescence units)	calcium entry signal, replicate 2 (fluorescence units)	resting calcium signal, replicate 1 (fluorescence units)	resting calcium signal, replicate 2 (fluorescence units)	outcome
Desi (Desiccate)	DRSC14909	3.95e7	3.76e7	1.94e7	2.06e7	inactive
Taf6 (TBP-associated factor 6)	DRSC11299	2.42e7	1.63e7	1.95e7	9.13e6	inactive
CG17198 + CG17197	DRSC15190	5.26e7	3.79e7	2.42e7	1.57e7	inactive
CG17198 + CG17197	DRSC15191	4.34e7	4.11e7	2.01e7	1.64e7	inactive
Sugb (Sugar baby)	DRSC10815	4.78e7	2.82e7	3.23e7	1.38e7	inactive
CG13082	DRSC02186	4.91e7	4.96e7	2.15e7	2.21e7	inactive
CG5225	DRSC15742	3.50e7	6.56e7	1.57e7	6.59e7	inactive
CG34251	DRSC09498	3.36e7	3.81e7	1.56e7	1.83e7	inactive
CG34251	DRSC09500	2.53e7	3.55e7	1.17e7	1.48e7	inactive
CG11629	DRSC03695	3.14e7	5.09e7	1.59e7	1.99e7	inactive
CG14380	DRSC14840	2.62e7	5.37e7	1.34e7	7.77e7	inactive
Est-Q (Esterase Q)	DRSC11835	2.59e7	3.89e7	1.25e7	2.59e7	inactive
Prx3 (Peroxiredoxin 3)	DRSC15883	3.71e7	3.33e7	1.74e7	1.58e7	inactive
CG14573	DRSC11734	3.49e7	5.24e7	1.61e7	2.19e7	inactive
CG34235 + CG30058 + CG34312	DRSC22142	2.60e7	3.30e7	1.35e7	1.55e7	inactive
l(2)dtl (lethal-(2)-denticleless)	DRSC04697	3.02e7		1.85e7		inactive
CG13215	DRSC06337	1.84e7	3.43e7	1.03e7	1.29e7	inactive
Eogt (EGF-domain O-GlcNAc transferase)	DRSC00727	4.40e7		2.05e7		inactive
CG3301	DRSC15471	4.96e7	4.05e7	2.08e7	1.75e7	inactive
stumps	DRSC13045	2.81e7	3.65e7	1.42e7	1.66e7	inactive
stumps	DRSC15332	3.03e7	5.76e7	1.50e7	6.42e7	inactive
stumps	DRSC17073	2.71e7	4.67e7	1.30e7	1.99e7	inactive
CG2116	DRSC18206	2.71e7	2.12e7	1.15e7	1.06e7	inactive
CG15649	DRSC04240	5.20e7	5.10e7	2.53e7	2.25e7	inactive
CG15710	DRSC06581	5.32e7	4.53e7	2.16e7	2.05e7	inactive
Act79B (Actin 79B)	DRSC11604	2.14e7	1.18e7	1.15e7	8.58e6	inactive
CG3081	DRSC18571	3.22e7	4.12e7	1.60e7	1.77e7	inactive
CG12307	DRSC02159	3.63e7	4.19e7	1.66e7	1.71e7	inactive
CG7987	DRSC16357	2.71e7	4.49e7	1.28e7	1.95e7	inactive
RpL29 (Ribosomal protein L29)	DRSC04650	2.91e7	4.49e7	1.51e7	1.92e7	inactive
CG8944	DRSC20128	3.88e7	5.47e7	1.75e7	2.93e7	inactive
CG8944	DRSC21342	2.55e7	3.77e7	1.29e7	1.56e7	inactive
Fkbp14 (FK506-binding protein 14)	DRSC04615	4.16e7		2.08e7		inactive
Ir56d (Ionotropic receptor 56d)	DRSC06590	5.47e7	5.65e7	2.02e7	2.58e7	inactive
CG4770	DRSC15639	3.28e7	4.53e7	6.51e7	1.77e7	inactive
Ugt37E1 (UDP-glycosyltransferase family 37 member E1)	DRSC02248	3.56e7	2.46e7	1.76e7	1.23e7	inactive
PPO3 (Prophenoloxidase 3)	DRSC04325	3.59e7		1.92e7		inactive
l(3)80Fg (lethal (3) 80Fg)	DRSC21645	3.41e7	3.61e7	1.90e7	1.57e7	inactive
l(3)80Fg (lethal (3) 80Fg)	DRSC22171	2.89e7	3.26e7	1.40e7	1.87e7	inactive
CG2100	DRSC12303	3.10e7	3.70e7	1.35e7	1.51e7	inactive
